Data taken from patent publication US8043804.
These are yes or no findings as the source states them, for the method shown. Binding seen in cells or lysates may run through a third protein. Some entries that bind do so weakly or less than the wild type.

Sequences of proteins named here, by UniProt entry; tags and fusion partners are left off. A change or cut given only in a name is not applied to a line headed by its entry. Residues count along the entry.
UniProt Q96EB6: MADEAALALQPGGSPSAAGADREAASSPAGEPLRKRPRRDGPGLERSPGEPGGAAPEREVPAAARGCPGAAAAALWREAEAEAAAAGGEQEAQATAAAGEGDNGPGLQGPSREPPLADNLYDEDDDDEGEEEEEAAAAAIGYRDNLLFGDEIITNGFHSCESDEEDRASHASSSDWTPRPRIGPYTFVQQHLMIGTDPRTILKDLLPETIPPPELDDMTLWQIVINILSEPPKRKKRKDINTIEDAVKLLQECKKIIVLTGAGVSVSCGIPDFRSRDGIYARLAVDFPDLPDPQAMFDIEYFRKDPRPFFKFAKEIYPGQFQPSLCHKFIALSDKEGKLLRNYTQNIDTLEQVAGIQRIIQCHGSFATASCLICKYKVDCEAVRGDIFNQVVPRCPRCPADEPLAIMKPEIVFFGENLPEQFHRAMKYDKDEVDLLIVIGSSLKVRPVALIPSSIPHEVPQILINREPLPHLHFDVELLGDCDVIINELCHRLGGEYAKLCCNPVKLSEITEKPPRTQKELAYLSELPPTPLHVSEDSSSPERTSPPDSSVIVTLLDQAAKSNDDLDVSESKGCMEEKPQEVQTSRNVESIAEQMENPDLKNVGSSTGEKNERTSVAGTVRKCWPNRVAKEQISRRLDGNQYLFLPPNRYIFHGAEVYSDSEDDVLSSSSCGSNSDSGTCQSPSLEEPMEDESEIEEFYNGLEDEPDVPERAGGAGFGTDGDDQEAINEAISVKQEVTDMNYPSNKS
UniProt Q8N163, residues 1-399: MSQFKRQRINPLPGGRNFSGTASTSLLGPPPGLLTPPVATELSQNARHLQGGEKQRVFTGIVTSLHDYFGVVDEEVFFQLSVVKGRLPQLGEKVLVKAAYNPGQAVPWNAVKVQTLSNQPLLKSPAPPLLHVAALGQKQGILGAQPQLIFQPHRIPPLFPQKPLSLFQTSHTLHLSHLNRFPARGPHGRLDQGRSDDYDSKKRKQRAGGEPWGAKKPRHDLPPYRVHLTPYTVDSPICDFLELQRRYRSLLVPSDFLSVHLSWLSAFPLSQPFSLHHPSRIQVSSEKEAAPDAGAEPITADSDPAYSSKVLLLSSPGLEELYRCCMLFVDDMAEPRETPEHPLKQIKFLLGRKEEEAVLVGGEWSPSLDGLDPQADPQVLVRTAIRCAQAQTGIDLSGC

Columns and labels:
[1] = biological target: ^35S-labelled in vitro translated SIRT1 (human) (UniProt Q96EB6); assay: GST pull-down with in vitro translated ^35S-labelled SIRT1 (FIG. 7)
[2] = biological target: ^35S-labelled in vitro translated SIRT1 (human) (UniProt Q96EB6); assay: GST pull-down of ^35S-labelled in vitro translated SIRT1, autoradiography (FIG. 7)
[3] = biological target: DBC1 (Deleted in Breast Cancer 1) protein (human) (UniProt Q8N163); assay: reciprocal co-immunoprecipitation from U2OS cell extracts, Western blot
[4] = biological target: DBC1 (Deleted in Breast Cancer 1) protein (human) (UniProt Q8N163); assay: co-immunoprecipitation with DBC1 specific antibody, Western blot (FIG. 2b)
[5] = biological target: DBC1 (Deleted in Breast Cancer 1) protein (human) (UniProt Q8N163); assay: co-immunoprecipitation with a DBC1-specific antibody from U2OS cells, Western blot (FIG. 6)

| binding [1] | binding [2] | binding [3] | binding [4] | binding [5] | Substance |
| --- | --- | --- | --- | --- | --- |
| binds | binds | – | – | – | GST-NT-DBC1 (from UniProt Q8N163 1-399) |
| – | – | binds | binds | binds | SIRT1 (Silencing mating type information regulator 2 homolog) (from UniProt Q96EB6 2-747) (enzyme) |
